# Assay results taken from patent publication US20080113956A1, “Substituted Porphyrins” (priority 1997, published 2008).
# At least one read-out could not be matched to a standard name with certainty.
# System: DNA
# Assay: SOD activity in vitro in the presence of DNA (DNA interaction)
# Format: biochemical
# From the text: The “ortho effect” also decreases the toxicity. It is well known that porphyrins, and particularly cationic porphyrins, interact with DNA and can act as DNA cleavers. This fact can be an issue in the use of metallo-porphyrins as anti-tumor drugs. The present mimetics avoid this interaction.
# In order to maximize the decrease in toxicity due to interaction with DNA, two derivatives of the ortho compound have been prepared which carry four ethyl or four butyl groups (“4” and “5”, respectively).
substance,measurement,setting,value
"manganese(III) 5,10,15,20-tetrakis(N-methylpyridyl)porphyrin [MnTM-4-PyP^5+, reference compound]",DNA-IC50 concentration of DNA for 50% inhibition of the superoxide dismutation reaction,listed as 1,7.0 10^−6
"manganese(III) 5,10,15,20-tetrakis(N-methylpyridyl)porphyrin [MnTM-3-PyP^5+]",DNA-IC50 concentration of DNA for 50% inhibition of the superoxide dismutation reaction,listed as 2,2.2 10^−5
"manganese(III) 5,10,15,20-tetrakis(N-methylpyridyl)porphyrin [MnTM-2-PyP^5+]",DNA-IC50 concentration of DNA for 50% inhibition of the superoxide dismutation reaction,listed as 3,3.3 10^−5
